The exact form of at least one protein or probe is not confirmed.
Target: MutY adenine DNA glycosylase (UniProt P17802)
Assay: EMSA
Conditions: N at position 13 of SEQ 1 is adenine linked by CH2 to pyrrolidine (transition state analog 2a); N at position 13 of SEQ 2 is 8-oxoG [strand 1: 13 (adenine-CH2-pyrrolidine, 2a); strand 2: 13 (8-oxoG)]; estimated upper limit; label: 5'-32P on SEQ 1 strand; letters built from the parent sequence and the stated change

The chains behind the UniProt entries cited, without tags or fusion partners. Where a name states a change or a piece, a line headed by the entry shows the natural chain unless it says otherwise.
UniProt P17802: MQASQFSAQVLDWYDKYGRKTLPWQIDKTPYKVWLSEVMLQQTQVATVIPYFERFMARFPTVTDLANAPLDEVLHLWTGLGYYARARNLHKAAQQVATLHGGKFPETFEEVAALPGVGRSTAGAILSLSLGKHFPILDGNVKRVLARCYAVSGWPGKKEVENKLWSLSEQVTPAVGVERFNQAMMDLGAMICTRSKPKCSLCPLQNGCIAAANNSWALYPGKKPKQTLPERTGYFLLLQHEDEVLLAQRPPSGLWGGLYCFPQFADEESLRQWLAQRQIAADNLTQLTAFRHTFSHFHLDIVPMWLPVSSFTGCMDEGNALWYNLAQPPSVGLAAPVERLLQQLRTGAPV

## GGATAGTGTCCAAGTTACTCGAAGC / GCTTCGAGTAACGTGGACACTATCC [hA (inhibitor 2a) 25-mer duplex opposite oxoG]
  Kd: < 2 pM

Source: patent US6369237
